# Reference: patent US8624022B2, “Substituted aniline derivatives” (UCB Pharma, S.A., priority 2006, dated 2014)
# For at least one compound, name, drawing or mass did not settle the structure.
# Tested on: β-1,3-D-glucan biosynthesis in Candida Albicans strain CAF2-1
# Assay: Glucan biosynthesis assay (labelled glucose into β-glucan vs acetate into fatty acids)
# Assay type: cell-based
# Settings: Candida Albicans strain CAF2-1, growing culture; specificity vs acetate incorporation into fatty acids
smiles,measurement,value
"N[C@H]1CCN(C(=O)CN(CC(=O)NCc2cccc(Cl)c2)c2ccc(Oc3ccccc3)cc2)C1 [OGT4154, 2-[[2-((S)-3-Aminopyrrolidin-1-yl)-2-oxo-ethyl]-(4-phenoxyphenyl)amino]-N-(3-chlorobenzyl)acetamide]","inhibition of glucose incorporation into β-1,3-D-glucan","preferentially inhibits β-1,3-D-glucan biosynthesis"
